Reference: PubChem BioAssay AID901 (National Center for Advancing Translational Sciences (NCATS), 2007)
This is one part of the list. Shown are side measurements of this screen, not its main read-out; they come without a call. Compounds called inactive in the main read-out are mostly missing here. Words in brackets tell the shape of the fitted curve; partial curves, single points and poor fits give uncertain potencies.

assay: qHTS Assay for Identifying the Cell-Membrane Permeable IMPase Inhibitors; conditions: CHO-M1 cells, IP1 accumulation, HTRF TR-FRET ratio; measured here: donor channel 620 nm AC50

SMILES	AC50
C=CCNC(=S)NNC(=O)c1cccn(Cc2ccc(Cl)cc2Cl)c1=O	39.8 nM [falling, full curve, poor fit]
Cc1ccc(Cl)cc1NC(=O)COC(=O)C12CC3CC(CC(C3)C1)C2	31600 nM [rising, single point]
Cc1cccc(NC(=O)CSc2nc(-c3ccccc3)c(C#N)c(=O)[nH]2)c1C	25100 nM [rising, single point]
CCCCc1c(C)nc(N)[nH]c1=O	10 nM [rising, full curve, poor fit]
O=C(O)CC(c1ccccc1)n1cccc1 (configuration not stated)	10 nM [rising, full curve, poor fit]
O=C(NCCCNc1ccc(C(F)(F)F)cc1[N+](=O)[O-])c1ccc(Cl)cc1	5010 nM [rising, full curve]
COc1ccccc1N1CCN(C(=O)c2cc(-c3ccc4c(c3)OCO4)on2)CC1	20 nM [falling, full curve, poor fit]
Cn1nnc(NC(=O)CSc2ncn[nH]2)n1	126 nM [rising, full curve]
COc1cccc(CNCCNC(=O)c2nonc2N)c1	158 nM [falling, single point]
O=S(=O)(c1ccc(-c2csc(-c3cccnc3)n2)cc1)N1CCCCC1	15800 nM [falling, single point]
CCN(CC)c1ccc(NC(=O)c2nc3nc(C)cc(C(F)F)n3n2)cc1	126 nM [falling, full curve, poor fit]
CC(C)(C=O)C1=CC(=O)c2ccccc2C1=O	22400 nM [falling, single point]
O=C(O)CCCCCNCc1ccncc1	15.8 nM [rising, full curve, poor fit]
COC(=O)c1cc(COc2ccc3oc(C)c(C(=O)OC)c3c2)c(C)o1	10000 nM [falling, partial curve, poor fit]
O=C(c1cnccn1)N(c1ccccc1)C1(C(=O)NC2CCCCC2)CCCCC1	5010 nM [rising, partial curve, poor fit]
O=C(O)C1CC=CCC1C(=O)N1CCN(c2nc(-c3ccccc3Cl)c3cc(Br)ccc3n2)CC1 (configuration not stated)	15800 nM [rising, single point]
OCCNc1ncnc2ccc(Br)cc12	79.4 nM [falling, full curve, poor fit]
CCOC(=O)c1c(-c2cccs2)csc1NC(=O)CCCC(=O)O	20000 nM [rising, single point]
COC(=O)CSc1cc(C)nc2ccc(OC)cc12	10 nM [rising, full curve, poor fit]
O=C(CCn1c(=O)[nH]c2ccccc2c1=O)N1CCN(c2ccc(Cl)cc2)CC1	6310 nM [falling, single point]
CCCNC(=O)N1CCC(C(=O)c2cccc(F)c2)CC1	10000 nM [rising, partial curve]
COc1ccc2c(CC(=O)NC3CCCc4ccccc43)coc2c1 (configuration not stated)	112 nM [falling, full curve]
Cc1ccccc1-c1nnc(SCc2ccccc2)o1	5010 nM [rising, single point]

SMILES	AC50
CCOC(=O)c1ccccc1NC(=O)c1cncc(Br)c1	5620 nM [rising, single point]
COC(=O)c1ccccc1NC(=O)c1cc2sccc2n1C	39800 nM [falling, partial curve, poor fit]
O=C(c1ccccc1NS(=O)(=O)c1cccs1)N1CCCC1	10 nM [rising, full curve, poor fit]
O=C(NC(=S)Nc1ccc(S(=O)(=O)N2CCCCC2)cc1)c1ccccc1	15800 nM [falling, partial curve, poor fit]
Cc1[nH]c(=O)[nH]c(=O)c1/C=N/NC(=O)[C@@H](NC(=O)OC(C)(C)C)C(C)C	1000 nM [falling, partial curve]
CC(C)N1C(=O)c2ccccc2C1C(=O)NC1CCCCCC1 (configuration not stated)	5010 nM [falling, partial curve, poor fit]
CCc1nnc(NC(=O)c2ccc(S(=O)(=O)N3CCN(Cc4ccccc4)CC3)cc2)s1	794 nM [rising, full curve, poor fit]
CCn1c(=S)ccc2ccc(OC)cc21	15800 nM [rising, single point]
CCn1cc(C2=NOC(C(=O)Nc3cc(OC)c(Cl)cc3OC)C2)c(C)n1 (configuration not stated)	1000 nM [falling, partial curve, poor fit]
Cc1c(F)cccc1NS(=O)(=O)c1ccccc1C#N	3550 nM [falling, full curve]
COc1ccc(C2=NOC(C(=O)N3CCCCCC3)C2)cc1OC (configuration not stated)	1260 nM [falling, full curve]
CC1=C(C(=O)Nc2ccccn2)C(c2ccc(Br)cc2)n2ncnc2N1 (configuration not stated)	15800 nM [falling, single point]
Cc1cc(NC(=O)C2CCN(S(=O)(=O)c3ccc(Br)s3)CC2)ccc1Br	22400 nM [rising, single point]
COc1ccccc1NC(=O)C1C2CCCCC21 (configuration not stated)	5.01 nM [rising, full curve, poor fit]
CCOC(=O)c1cn(CC)c2ccc(Br)cc2c1=O	3.16 nM [rising, full curve, poor fit]
CCOc1ccccc1N1CCN(Cc2ccc(OC)c(OC)c2OC)CC1	100 nM [falling, full curve, poor fit]
COCn1c(-c2ccc(OC)cc2)nc2ccccc21	12600 nM [falling, single point]
COc1cc(OC)cc(C(=O)NC2CCN(CC(=O)Nc3cccc4ccccc34)CC2)c1	3980 nM [falling, single point]
Cc1cccn2c(=O)c(/C=C(\C#N)c3nc4ccccc4n3C)c(Oc3ccc(Cl)cc3)nc12	56.2 nM [falling, partial curve]
CC1CCN(S(=O)(=O)c2ccc(S(=O)(=O)NCc3ccccc3)cc2)CC1	31600 nM [falling, partial curve]
CC(O)CNCc1cccc2ccccc12 (configuration not stated)	251 nM [falling, single point]
CCN1CCN(c2nc(C)c3c(n2)CCCC3=O)CC1	794 nM [rising, single point]
COC(=O)CSc1nnc2c(C)cc3cc4c(cc3n12)OCCO4	12.6 nM [rising, full curve, poor fit]

SMILES	AC50
CCC(=O)Nc1cccc(C(=O)/C=C/c2cc(Br)ccc2OC)c1	794 nM [falling, full curve, poor fit]
Cc1cc(NC(=O)CSc2ccc(-c3ccccc3)nn2)no1	79.4 nM [falling, single point]
CC(C)(C)c1ccc(OCCN2CCCC2)cc1	25100 nM [rising, partial curve]
Clc1cccc(CSc2ncn(-c3ccccc3)n2)c1	31600 nM [rising, single point]
CCOC(=O)c1c(NC(=O)c2ccco2)n(C2CCCCC2)c2nc3ccccc3nc12	7940 nM [rising, partial curve, poor fit]
CCOC(=O)c1nnn(-c2nonc2N)c1CN(CC)CC	63.1 nM [falling, full curve, poor fit]
Fc1ccc(NCc2ccccc2-c2nnc(-c3ccccc3Cl)o2)cc1Cl	2000 nM [falling, full curve, poor fit]
COc1ccc2cc3cc(C(=O)NCCN4CCc5ccccc5C4)oc3nc2c1	126 nM [falling, full curve, poor fit]
O=C1NCCN1C(=O)c1ccccc1F	501 nM [falling, full curve, poor fit]
CCCOc1ccc(C(=O)Nc2ccc(NC(=O)c3ccc(Br)cc3)cc2)cc1	501 nM [falling, full curve, poor fit]
NS(=O)(=O)c1ccc(NS(=O)(=O)c2cccs2)cc1	10000 nM [falling, partial curve, poor fit]
Cc1nc2sc(C(c3ccc(Cl)cc3)N3CCOCC3)c(O)n2n1 (configuration not stated)	158 nM [falling, full curve, poor fit]
CCOc1ccc2nc(Cl)c(C3CC(c4ccccc4)=NN3C(=O)CCC(=O)O)cc2c1 (configuration not stated)	56.2 nM [falling, full curve, poor fit]
CN(C)c1ccc(C=NCCC2(O)CCOC(C)(C)C2)cc1 (configuration not stated)	5620 nM [rising, single point]
CCCN(C(=O)c1ccccc1N)c1c(C)n(C)n(-c2ccccc2)c1=O	794 nM [rising, full curve]
CCCCCCC1CC(CSc2ncn[nH]2)OC1=O (configuration not stated)	1580 nM [falling, partial curve]
CCC1(C)Cc2c(sc3nc4n(c(=O)c23)CCS4)CO1 (configuration not stated)	1410 nM [falling, partial curve, poor fit]
Cc1noc(C)c1S(=O)(=O)N1CCC(C(=O)N(C)Cc2ccccc2)CC1	3160 nM [falling, full curve]
COc1cc(NS(=O)(=O)c2ccc(NS(=O)(=O)c3ccccc3)cc2)nc(OC)n1	20 nM [rising, full curve, poor fit]
Cc1ccc(-n2c(C)cc(C(=O)COC(=O)C3=NNC(=O)CC3)c2C)cc1	12600 nM [rising, single point]
CCn1c(SCC(=O)NC(C)c2ccccc2)nc2ccccc21 (configuration not stated)	100 nM [falling, full curve, poor fit]

A different layout for 4 compounds above.
COc1ccc2cc3cc(C(=O)NCCN4CCc5ccccc5C4)oc3nc2c1
  AC50: 126 nM [falling, full curve, poor fit]
O=C1NCCN1C(=O)c1ccccc1F
  AC50: 501 nM [falling, full curve, poor fit]
CCCOc1ccc(C(=O)Nc2ccc(NC(=O)c3ccc(Br)cc3)cc2)cc1
  AC50: 501 nM [falling, full curve, poor fit]
NS(=O)(=O)c1ccc(NS(=O)(=O)c2cccs2)cc1
  AC50: 10000 nM [falling, partial curve, poor fit]
